Data taken from paper PMC3256188, “Novel Nonphosphorylated Peptides with Conserved Sequences Selectively Bind to Grb7 SH2 Domain with Affinity Comparable to Its Phosphorylated Ligand” (PLoS ONE, 2012).
No constants are given. Whether binding was seen depends on the method and setting. For some assays here: Binding seen in cells or lysates may run through a third protein. Some results given as binding are weak or reduced against the parent protein; the word gives no strength. For some assays here: Where a sequence is shown, tags or fusion partners need not be part of it. Values belong to the binder of their own block, whether it stands above or below them.

Legend:
[1] = molecular target: GAL4 BD-Grb7 SH2 domain (human); assay: two-hybrid; GAL4 BD-SH2 bait and AD peptide in yeast strain CG1945; selection on SD/-Trp-His-Leu, retransformation and improved LacZ assay
[2] = molecular target: T1, 41-mRLUC-3×Flag; assay: co-IP; HEK293T co-transfected; lysate (1% NP-40, 0.5% deoxycholate, 0.1% SDS, 0.15 M NaCl, pH 7.5); precipitated with anti-Flag antibody and protein G agarose at 4°C, blotted with anti-GFP
T1 sequence: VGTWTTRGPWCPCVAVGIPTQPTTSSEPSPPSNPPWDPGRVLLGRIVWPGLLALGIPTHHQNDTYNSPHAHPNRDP

[3] = molecular target: T2, 10CM-mRLUC-3×Flag; assay: as above
T2 sequence: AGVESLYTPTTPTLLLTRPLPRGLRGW

[4] = molecular target: T1, 41-mRLUC-3×Flag; assay: co-IP; competition experiment, the complex of GFP-Grb7 SH2 and 41-mRLUC-3×Flag from transfected HEK293T without competing peptide

binding [1]: no binding
B1: peptide 10BM (C-terminal conserved GIP of peptide 10 deleted), two-hybrid form (peptide)
chain: AGVESLGIPNYTPTTPTLLLTRPLPRGLRGW

binding [1]: no binding
B2: peptide 10CM (both conserved ends of peptide 10 deleted), two-hybrid form (peptide)
chain: AGVESLYTPTTPTLLLTRPLPRGLRGW

binding [2]: binds | binding [3]: no binding | binding [4]: binds
B3: EGFP-Grb7 SH2 (domain or fragment)
chain: IHRTQLWFHGRISREESQRLIGQQGLVDGLFLVRESQRNPQGFVLSLCHLQKVKHYLILPSEEEGRLYFSMDDGQTRFTDLLQLVEFHQLNRGILPCLLRHCCTRVAL
